Results on three sequences are retold here after paper PMC9638919, “DAZL regulates proliferation of human primordial germ cells by direct binding to precursor miRNAs and enhances DICER processing activity”.

Construct, isoform or probe ends are uncertain for at least one entry. For part of these data: No signal at the amounts used counts as a negative. For part of these data: At least one verdict was read from the data and is not stated in words by the source. For part of these data: Tags and fusion partners may be left off the protein sequences shown.

One data set deals with T1, GST-DAZL (UniProt Q92904).
T1 sequence (looked up, limits assumed): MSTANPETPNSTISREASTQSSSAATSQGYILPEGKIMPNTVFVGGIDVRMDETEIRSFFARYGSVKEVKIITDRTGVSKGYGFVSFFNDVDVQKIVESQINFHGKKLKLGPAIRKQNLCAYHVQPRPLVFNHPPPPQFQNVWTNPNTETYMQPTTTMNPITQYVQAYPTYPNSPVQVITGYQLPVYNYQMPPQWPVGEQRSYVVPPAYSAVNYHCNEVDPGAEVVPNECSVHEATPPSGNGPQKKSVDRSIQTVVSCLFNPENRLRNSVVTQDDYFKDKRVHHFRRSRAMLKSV
Put plainly: EMSA. The conditions noted are these: not significantly affected; 10 mM HEPES pH 7.4, 50 mM KCl, 1 mM EDTA, 0.05% Triton X-100, 5% glycerol, 0.01 mg/ml BSA, 1 mM DTT; 10 nM FAM-RNA, 40 min; temperature not stated; recombinant protein; protein details: N-terminal GST; label: 5'-FAM. On the technique in general: Mobility shift assays separate free from complexed probe on a gel.

The test system of the next data set is GST. The data set is described as follows: EMSA. The conditions noted are these: 10 mM HEPES pH 7.4, 50 mM KCl, 1 mM EDTA, 0.05% Triton X-100, 5% glycerol, 0.01 mg/ml BSA, 1 mM DTT; 10 nM FAM-RNA, 40 min; temperature not stated; recombinant protein; label: 5'-FAM.

As to “UAGAGUUUCACCCUGGGAGUUAA [pre-let-7c loop, A after first GUU to U]”, in the data set with GST-DAZL, the binding result is on record as “binds”. On the same count and under the same terms, the same measure for “UAGAGUUACACCCUGGGAGUUUA [pre-let-7c loop, A after second GUU to U]”: “binds”. Consider “GCAUCCGGGUUGAGGUAGUAGGUUGUAUGGUUUAGAGUUACACCCUGGGAGUUAACUGUACAACCUUCUAGCUUUCCUUGGAGC [pre-let-7c]”, for which, in the data set with GST, the binding result is listed as “no binding”.
